Here are results for two molecules from paper PMC12090772.

Protein sequences, listed by entry. Tags and fused reporters are not part of them. Lines headed by an entry give the natural chain unless they say otherwise; changes in a name come on top. Chains listed by the source or under a name are the forms on record and can include a tag or linker.
Human TASOR, Flag-tagged (Q9UK61, form named): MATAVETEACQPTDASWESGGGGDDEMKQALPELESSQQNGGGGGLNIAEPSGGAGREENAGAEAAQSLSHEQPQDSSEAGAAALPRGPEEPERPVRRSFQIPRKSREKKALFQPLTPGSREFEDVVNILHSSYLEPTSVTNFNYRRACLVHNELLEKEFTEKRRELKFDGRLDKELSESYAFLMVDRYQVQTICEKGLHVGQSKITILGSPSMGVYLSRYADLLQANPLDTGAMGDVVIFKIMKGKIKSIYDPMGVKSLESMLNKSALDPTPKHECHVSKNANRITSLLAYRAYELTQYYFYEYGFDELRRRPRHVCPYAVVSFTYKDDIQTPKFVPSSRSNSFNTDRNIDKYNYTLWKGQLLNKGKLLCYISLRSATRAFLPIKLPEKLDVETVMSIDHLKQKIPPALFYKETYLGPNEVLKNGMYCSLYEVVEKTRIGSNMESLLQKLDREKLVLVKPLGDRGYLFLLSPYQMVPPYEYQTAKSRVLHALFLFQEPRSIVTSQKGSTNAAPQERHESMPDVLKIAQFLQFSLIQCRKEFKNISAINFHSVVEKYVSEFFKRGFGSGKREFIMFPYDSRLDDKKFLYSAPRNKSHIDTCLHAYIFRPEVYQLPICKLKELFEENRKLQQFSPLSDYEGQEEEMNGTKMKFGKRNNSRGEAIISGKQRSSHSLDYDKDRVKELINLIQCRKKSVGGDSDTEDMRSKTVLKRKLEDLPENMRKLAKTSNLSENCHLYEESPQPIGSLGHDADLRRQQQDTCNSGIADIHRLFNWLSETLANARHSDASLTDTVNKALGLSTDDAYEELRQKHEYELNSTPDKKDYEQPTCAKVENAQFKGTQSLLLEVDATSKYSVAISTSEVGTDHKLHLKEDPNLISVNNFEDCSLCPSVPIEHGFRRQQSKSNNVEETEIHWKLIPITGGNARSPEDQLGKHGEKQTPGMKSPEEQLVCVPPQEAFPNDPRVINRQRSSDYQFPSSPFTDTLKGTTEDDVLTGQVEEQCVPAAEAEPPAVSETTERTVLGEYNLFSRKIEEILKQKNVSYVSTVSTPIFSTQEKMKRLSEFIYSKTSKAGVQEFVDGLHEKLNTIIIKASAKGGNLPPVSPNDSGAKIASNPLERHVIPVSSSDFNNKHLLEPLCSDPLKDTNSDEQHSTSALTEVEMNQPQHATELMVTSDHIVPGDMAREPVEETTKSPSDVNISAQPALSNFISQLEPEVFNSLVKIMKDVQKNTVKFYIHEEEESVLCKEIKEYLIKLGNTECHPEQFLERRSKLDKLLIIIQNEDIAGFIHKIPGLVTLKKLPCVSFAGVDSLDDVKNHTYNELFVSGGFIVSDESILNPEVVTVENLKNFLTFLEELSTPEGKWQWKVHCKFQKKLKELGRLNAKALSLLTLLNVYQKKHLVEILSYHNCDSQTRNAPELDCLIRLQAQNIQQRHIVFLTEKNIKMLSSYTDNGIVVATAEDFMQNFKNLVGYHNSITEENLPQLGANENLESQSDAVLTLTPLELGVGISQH
UniProt Q9Y4B6: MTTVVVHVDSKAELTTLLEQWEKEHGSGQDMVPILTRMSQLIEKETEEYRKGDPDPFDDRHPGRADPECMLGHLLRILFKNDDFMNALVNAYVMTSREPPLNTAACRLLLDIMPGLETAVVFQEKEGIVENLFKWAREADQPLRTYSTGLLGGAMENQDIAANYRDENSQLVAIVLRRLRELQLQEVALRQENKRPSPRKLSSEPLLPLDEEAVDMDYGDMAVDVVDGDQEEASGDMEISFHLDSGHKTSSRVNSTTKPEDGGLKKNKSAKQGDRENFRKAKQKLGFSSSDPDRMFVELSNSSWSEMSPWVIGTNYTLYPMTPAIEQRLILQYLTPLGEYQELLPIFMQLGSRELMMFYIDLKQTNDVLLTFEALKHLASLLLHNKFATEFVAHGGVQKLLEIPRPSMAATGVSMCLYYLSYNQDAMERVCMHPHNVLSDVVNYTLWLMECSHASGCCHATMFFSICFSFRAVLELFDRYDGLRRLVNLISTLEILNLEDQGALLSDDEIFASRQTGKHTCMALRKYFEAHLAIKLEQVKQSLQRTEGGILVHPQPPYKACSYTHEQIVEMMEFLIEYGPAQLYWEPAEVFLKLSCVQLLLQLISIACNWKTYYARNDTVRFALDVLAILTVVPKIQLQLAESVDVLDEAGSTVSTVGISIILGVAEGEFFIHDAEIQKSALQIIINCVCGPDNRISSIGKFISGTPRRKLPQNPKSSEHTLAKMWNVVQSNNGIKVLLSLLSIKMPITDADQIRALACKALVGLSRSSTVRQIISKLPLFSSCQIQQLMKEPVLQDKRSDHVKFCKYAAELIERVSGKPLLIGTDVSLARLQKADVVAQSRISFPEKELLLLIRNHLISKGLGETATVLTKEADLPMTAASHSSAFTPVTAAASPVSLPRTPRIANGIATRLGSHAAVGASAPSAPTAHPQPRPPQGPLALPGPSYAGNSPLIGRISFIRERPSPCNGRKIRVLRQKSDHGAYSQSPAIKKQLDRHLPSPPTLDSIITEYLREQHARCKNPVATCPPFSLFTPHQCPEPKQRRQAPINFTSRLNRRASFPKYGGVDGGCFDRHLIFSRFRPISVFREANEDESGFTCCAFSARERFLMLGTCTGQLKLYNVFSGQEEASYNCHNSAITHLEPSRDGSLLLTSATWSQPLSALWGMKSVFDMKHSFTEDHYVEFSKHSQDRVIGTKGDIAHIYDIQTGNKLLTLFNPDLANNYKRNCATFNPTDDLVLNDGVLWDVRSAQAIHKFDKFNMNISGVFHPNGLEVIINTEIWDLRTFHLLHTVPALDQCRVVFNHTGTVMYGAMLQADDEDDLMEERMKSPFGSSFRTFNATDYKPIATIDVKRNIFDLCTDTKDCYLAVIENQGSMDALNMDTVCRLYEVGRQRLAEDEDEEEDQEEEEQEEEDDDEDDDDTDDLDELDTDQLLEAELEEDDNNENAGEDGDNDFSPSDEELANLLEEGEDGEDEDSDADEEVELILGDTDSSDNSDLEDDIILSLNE

Assay [1] concerns the target Vpr SIVagm.gri677 (SIVagm.Gri (strain gri677)) (UniProt Q02842). The assay is described as follows: co-IP; HA-Vpr constructs expressed in HeLa cells (with TASOR-Flag co-transfected where TASOR was looked for); anti-HA affinity gel beads, 4°C overnight, RIPA buffer; Western blot.
For assay [2], the target named is Human TASOR, Flag-tagged (human) (UniProt Q9UK61). The assay is described as follows: co-IP; HA-Vpr or HA-Vpx overexpressed in OMK cells with human or owl monkey Flag-TASOR; anti-Flag immunoprecipitation; Western blot.

These are yes or no findings as the source states them, for the method shown. Binding seen in cells or lysates may run through a third protein. Some entries that bind do so weakly or less than the wild type.

As for “DCAF1 (human, endogenous in HeLa cells) (from UniProt Q9Y4B6 1-1507)”, in assay [1], the binding entry was “binds”.

B1: Vpx HIV-2 Gh (protein, UniProt P18045 1-112)
chain: MTDPRERVPPGNSGEETIGEAFEWLDRTIEALNREAVNHLPRELIFQVWQRSWRYWHDDQGMSPSYTKYRYLCLMQKAVFIHFKRGCTCLGGGHGPGGWRSGPPPPPPPGLV
As for B1, the binding result in assay [2] is “binds”.
